Experimental data from patent publication US20100280101, “METHOD OF INHIBITING CANCER CELL PROLIFERATION, PROLIFERATION INHIBITOR AND SCREENING METHOD” (University of Occupational and Environmental Health Japan, published 2010).
Where a protein sequence is shown, tags need not be part of it.

Biological target: T1, ZNF143 (endogenous, PC3 cells) (Homo sapiens) (UniProt P52747)
T1 sequence (limits assumed): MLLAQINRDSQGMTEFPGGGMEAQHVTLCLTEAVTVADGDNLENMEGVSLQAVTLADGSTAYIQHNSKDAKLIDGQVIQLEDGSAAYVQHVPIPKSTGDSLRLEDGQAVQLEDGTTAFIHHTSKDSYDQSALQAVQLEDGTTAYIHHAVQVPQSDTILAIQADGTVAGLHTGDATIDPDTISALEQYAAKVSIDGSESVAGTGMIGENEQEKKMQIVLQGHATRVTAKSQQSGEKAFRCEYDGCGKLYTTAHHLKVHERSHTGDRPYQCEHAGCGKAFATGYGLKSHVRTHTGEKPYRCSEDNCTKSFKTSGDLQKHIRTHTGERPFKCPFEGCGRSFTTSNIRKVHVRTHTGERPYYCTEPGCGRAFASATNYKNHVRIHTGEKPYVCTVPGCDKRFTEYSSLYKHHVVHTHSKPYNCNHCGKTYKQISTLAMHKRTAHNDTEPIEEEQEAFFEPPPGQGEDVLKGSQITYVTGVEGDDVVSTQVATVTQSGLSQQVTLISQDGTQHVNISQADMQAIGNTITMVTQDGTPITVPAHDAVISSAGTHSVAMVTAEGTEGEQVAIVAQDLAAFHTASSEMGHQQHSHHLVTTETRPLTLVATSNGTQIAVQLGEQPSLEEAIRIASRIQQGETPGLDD
Assay: activity in cells
Details: luciferase reporter in PC3 reduced by ZNF143 siRNA, not by control siRNA; protein in cells; variant of CDC6 promoter site; only the site is given

ACTACGCCTCCCAGCGTGCTTTGCGACTACGCCTCCCAGCGTGCTTTGCG (double strand) [CDC6 site x2 tandem in pGL3]
activity on this sequence: active
